The experiment concerns biofilm of five representative oral bacterial species: A. viscosus, L. casei, S. oralis, V. parvula and F. nucleatum. In words: Example 1: healthy biofilm formation on saliva-coated HAP disks (absorbance at 610 nm after trypsin). The class given is cell-based. Conditions: compound 0.01 wt. %. The method, then: 0.5″ Ca^2+-deficient hydroxyapatite (HAP) disks were coated with UV-sterilized human saliva overnight.
After 1 hour, excess treatment was removed by aspiration and disks were inoculated with 1 ml of bacteria from a continuous culture system at an OD(600) of about 0.2. The continuous culture system was maintained for approximately three months at 37° C. and contained five representative oral bacterial species: A. viscosus, L. casei, S. oralis, V. parvula and F. nucleatum. Previous work has shown this mix to form repeatable biofilms that can serve as a representation of the more complex mix of 500-700 bacterial species found in dental plaque.
The inoculated scHAP disks were incubated for 48 hours at 37° C. to allow a biofilm to form on them. After 48 hours of biofilm formation, disks were transferred to test tubes containing 1 ml of 0.25% trypsin solution. Disks were incubated at 37° C. with shaking for 45 minutes. The tubes were briefly vortexed to resuspend the bacteria, and the supernatants were then transferred to a fresh 24 well plate. Plates were […] for 2 minutes to pellet any residual HAP flakes and the supernatants were removed to fresh plates so that their absorbance could be measured at 610 nm. All samples were tested in triplicate and the average of the three wells was determined.

As to `CCCCCCCCCCCCCCCC[n+]1ccccc1` [CPC, cetylpyridinium chloride, reference compound], under “48 hours biofilm, reduction in absorbance relative to disks treated with media alone”, the “% biofilm inhibition (B)” value amounted to 32.69%. In addition, the “% biofilm inhibition efficiency (C)” value (C=B/A×100%) was 50.00%.

The record behind these values is US11471394B2, “Oral care compositions containing deoxy sugar antimetabolites” (Colgate-Palmolive Company, priority 2013, dated 2022).
